This is an account of results in paper PMC9274503.

Protein sequences, listed by entry. Tags and fused reporters are not part of them.
UniProt Q14209: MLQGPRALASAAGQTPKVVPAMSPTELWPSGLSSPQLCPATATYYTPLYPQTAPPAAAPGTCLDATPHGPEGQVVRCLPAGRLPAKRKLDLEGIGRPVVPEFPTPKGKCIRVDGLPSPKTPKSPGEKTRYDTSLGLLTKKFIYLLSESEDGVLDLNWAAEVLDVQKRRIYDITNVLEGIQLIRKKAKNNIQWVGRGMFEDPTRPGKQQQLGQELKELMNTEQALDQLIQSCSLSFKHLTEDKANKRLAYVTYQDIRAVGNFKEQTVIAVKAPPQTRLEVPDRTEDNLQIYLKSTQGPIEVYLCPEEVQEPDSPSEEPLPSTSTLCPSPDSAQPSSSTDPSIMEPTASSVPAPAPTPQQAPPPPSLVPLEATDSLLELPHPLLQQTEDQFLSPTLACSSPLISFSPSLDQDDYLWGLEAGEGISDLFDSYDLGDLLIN
UniProt P10244: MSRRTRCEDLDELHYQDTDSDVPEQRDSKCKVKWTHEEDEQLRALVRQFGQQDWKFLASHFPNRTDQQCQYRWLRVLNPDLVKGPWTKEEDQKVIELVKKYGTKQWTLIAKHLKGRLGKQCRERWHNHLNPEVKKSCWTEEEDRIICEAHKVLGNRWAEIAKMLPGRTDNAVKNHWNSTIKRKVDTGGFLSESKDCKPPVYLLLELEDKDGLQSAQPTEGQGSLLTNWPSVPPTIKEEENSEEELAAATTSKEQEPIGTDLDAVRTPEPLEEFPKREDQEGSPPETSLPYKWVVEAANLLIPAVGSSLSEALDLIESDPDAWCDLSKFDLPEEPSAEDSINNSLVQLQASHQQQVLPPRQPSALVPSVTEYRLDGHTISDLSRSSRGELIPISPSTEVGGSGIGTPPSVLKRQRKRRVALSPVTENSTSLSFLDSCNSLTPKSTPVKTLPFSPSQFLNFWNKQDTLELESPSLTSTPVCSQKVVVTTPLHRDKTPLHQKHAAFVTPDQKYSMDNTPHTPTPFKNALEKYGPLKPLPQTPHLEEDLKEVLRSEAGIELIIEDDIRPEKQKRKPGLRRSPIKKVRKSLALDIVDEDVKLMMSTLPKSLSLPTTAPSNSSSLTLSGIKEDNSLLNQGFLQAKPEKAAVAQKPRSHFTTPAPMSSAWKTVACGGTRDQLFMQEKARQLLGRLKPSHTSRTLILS

These are yes or no findings as the source states them, for the method shown. Binding seen in cells or lysates may run through a third protein. Some binding calls cover weakened binding; strength is not graded here.

The target in this experiment is HA-E2F2 (human) (UniProt Q14209). The experiment can be described thus: co-IP; H1299 cells transiently co-transfected with HA-E2F2, Flag-B-Myb and 3×Flag-FOXM1b plasmids for 48 h; whole cell extracts precleared, IP with anti-HA antibody (normal rabbit IgG as control) overnight at 4 °C, Protein A/G magnetic beads, immunoblotting.

Consider Flag-B-Myb (from UniProt P10244 1-700), for which the binding entry was “binds”.
